# Experimental data: the supplement of paper PMC10849652
# The chains behind the UniProt entries cited, without tags or fusion partners. Where a name states a change or a piece, a line headed by the entry shows the natural chain unless it says otherwise.
# UniProt Q01196, whole entry, looked up: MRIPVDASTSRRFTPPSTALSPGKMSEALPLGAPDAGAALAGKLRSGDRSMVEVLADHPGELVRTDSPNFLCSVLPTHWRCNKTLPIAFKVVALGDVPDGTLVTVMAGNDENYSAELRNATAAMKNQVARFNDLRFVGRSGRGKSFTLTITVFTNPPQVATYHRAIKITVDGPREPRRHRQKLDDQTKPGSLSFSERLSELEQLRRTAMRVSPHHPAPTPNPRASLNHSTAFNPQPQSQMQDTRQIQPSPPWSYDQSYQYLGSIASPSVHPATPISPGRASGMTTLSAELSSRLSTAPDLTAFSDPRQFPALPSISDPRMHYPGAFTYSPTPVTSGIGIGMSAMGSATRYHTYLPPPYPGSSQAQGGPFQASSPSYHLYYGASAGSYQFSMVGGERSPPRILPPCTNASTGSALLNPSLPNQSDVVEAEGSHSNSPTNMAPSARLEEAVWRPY
# UniProt Q9HB90, whole entry, looked up: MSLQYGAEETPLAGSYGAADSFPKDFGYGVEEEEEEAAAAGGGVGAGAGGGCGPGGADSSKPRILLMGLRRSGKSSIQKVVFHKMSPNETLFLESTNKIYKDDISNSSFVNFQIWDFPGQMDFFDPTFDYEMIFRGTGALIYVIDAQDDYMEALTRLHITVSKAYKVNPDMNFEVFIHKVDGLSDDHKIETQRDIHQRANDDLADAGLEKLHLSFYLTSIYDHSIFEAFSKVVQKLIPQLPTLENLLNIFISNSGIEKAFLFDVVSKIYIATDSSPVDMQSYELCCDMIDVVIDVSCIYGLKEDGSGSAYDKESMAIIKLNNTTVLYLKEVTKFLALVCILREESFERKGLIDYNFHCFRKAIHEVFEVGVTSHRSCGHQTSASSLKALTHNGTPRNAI
# UniProt O95197: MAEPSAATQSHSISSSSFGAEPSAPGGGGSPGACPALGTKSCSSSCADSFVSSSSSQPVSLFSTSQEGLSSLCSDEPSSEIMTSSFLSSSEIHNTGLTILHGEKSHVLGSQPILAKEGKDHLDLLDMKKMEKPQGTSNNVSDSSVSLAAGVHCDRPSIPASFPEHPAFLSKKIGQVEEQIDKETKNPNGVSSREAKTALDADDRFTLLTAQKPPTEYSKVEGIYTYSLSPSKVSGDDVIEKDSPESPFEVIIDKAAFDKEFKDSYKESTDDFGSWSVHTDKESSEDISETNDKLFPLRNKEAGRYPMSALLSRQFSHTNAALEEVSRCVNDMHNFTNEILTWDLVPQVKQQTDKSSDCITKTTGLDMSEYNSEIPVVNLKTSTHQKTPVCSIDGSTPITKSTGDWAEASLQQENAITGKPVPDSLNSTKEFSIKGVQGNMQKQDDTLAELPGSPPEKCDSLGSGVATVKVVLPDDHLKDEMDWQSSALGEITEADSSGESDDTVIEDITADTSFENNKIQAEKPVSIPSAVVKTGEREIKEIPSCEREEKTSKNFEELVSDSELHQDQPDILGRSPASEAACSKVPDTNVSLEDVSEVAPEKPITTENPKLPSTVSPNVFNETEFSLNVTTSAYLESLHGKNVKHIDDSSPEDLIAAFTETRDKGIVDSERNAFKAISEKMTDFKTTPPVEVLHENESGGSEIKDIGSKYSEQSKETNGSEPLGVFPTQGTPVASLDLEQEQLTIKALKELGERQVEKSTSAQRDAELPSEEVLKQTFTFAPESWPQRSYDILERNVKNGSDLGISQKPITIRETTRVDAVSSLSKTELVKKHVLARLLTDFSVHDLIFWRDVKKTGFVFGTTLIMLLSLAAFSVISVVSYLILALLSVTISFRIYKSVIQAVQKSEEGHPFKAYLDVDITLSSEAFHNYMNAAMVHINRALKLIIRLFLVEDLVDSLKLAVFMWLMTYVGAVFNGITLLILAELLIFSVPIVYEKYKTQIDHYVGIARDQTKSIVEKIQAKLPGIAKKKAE
# UniProt Q5VWQ0: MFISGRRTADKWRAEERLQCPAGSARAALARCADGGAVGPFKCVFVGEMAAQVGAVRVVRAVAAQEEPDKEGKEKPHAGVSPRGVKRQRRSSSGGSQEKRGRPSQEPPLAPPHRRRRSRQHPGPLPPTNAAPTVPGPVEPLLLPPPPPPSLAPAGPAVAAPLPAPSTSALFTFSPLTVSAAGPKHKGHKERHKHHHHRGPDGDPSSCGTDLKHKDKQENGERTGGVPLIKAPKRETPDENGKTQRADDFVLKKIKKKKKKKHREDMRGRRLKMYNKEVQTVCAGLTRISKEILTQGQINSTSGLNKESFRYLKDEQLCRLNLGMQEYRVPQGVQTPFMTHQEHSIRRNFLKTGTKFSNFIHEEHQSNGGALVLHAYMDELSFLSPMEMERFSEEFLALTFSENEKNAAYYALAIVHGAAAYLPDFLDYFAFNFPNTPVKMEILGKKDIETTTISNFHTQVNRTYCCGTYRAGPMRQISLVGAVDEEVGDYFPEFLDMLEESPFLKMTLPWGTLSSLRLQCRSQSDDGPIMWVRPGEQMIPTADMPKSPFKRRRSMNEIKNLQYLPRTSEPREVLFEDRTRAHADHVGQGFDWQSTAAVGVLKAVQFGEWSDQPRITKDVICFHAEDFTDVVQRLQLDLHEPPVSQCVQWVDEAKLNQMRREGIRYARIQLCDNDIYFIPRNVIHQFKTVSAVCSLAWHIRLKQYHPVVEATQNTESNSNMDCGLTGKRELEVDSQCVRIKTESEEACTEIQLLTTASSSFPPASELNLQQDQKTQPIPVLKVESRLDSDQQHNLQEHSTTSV
# UniProt Q9NYV6: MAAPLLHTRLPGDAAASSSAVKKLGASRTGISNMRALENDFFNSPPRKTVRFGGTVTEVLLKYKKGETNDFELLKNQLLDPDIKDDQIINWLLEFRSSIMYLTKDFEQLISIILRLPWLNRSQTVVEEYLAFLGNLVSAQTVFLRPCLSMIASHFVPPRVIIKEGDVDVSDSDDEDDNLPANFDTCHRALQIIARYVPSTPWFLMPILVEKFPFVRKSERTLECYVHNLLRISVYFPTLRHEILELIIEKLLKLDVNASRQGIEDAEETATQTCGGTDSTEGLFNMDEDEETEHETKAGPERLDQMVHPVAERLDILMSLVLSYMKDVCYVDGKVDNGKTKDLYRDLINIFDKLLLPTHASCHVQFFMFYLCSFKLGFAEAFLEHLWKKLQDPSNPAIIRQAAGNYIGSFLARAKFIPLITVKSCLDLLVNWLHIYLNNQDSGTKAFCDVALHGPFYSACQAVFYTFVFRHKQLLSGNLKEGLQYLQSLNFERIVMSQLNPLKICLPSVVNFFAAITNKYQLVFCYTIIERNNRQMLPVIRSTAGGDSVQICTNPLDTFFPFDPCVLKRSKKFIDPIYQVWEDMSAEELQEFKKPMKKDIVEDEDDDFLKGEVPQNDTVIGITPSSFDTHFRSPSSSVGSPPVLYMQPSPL
# UniProt Q86VV8: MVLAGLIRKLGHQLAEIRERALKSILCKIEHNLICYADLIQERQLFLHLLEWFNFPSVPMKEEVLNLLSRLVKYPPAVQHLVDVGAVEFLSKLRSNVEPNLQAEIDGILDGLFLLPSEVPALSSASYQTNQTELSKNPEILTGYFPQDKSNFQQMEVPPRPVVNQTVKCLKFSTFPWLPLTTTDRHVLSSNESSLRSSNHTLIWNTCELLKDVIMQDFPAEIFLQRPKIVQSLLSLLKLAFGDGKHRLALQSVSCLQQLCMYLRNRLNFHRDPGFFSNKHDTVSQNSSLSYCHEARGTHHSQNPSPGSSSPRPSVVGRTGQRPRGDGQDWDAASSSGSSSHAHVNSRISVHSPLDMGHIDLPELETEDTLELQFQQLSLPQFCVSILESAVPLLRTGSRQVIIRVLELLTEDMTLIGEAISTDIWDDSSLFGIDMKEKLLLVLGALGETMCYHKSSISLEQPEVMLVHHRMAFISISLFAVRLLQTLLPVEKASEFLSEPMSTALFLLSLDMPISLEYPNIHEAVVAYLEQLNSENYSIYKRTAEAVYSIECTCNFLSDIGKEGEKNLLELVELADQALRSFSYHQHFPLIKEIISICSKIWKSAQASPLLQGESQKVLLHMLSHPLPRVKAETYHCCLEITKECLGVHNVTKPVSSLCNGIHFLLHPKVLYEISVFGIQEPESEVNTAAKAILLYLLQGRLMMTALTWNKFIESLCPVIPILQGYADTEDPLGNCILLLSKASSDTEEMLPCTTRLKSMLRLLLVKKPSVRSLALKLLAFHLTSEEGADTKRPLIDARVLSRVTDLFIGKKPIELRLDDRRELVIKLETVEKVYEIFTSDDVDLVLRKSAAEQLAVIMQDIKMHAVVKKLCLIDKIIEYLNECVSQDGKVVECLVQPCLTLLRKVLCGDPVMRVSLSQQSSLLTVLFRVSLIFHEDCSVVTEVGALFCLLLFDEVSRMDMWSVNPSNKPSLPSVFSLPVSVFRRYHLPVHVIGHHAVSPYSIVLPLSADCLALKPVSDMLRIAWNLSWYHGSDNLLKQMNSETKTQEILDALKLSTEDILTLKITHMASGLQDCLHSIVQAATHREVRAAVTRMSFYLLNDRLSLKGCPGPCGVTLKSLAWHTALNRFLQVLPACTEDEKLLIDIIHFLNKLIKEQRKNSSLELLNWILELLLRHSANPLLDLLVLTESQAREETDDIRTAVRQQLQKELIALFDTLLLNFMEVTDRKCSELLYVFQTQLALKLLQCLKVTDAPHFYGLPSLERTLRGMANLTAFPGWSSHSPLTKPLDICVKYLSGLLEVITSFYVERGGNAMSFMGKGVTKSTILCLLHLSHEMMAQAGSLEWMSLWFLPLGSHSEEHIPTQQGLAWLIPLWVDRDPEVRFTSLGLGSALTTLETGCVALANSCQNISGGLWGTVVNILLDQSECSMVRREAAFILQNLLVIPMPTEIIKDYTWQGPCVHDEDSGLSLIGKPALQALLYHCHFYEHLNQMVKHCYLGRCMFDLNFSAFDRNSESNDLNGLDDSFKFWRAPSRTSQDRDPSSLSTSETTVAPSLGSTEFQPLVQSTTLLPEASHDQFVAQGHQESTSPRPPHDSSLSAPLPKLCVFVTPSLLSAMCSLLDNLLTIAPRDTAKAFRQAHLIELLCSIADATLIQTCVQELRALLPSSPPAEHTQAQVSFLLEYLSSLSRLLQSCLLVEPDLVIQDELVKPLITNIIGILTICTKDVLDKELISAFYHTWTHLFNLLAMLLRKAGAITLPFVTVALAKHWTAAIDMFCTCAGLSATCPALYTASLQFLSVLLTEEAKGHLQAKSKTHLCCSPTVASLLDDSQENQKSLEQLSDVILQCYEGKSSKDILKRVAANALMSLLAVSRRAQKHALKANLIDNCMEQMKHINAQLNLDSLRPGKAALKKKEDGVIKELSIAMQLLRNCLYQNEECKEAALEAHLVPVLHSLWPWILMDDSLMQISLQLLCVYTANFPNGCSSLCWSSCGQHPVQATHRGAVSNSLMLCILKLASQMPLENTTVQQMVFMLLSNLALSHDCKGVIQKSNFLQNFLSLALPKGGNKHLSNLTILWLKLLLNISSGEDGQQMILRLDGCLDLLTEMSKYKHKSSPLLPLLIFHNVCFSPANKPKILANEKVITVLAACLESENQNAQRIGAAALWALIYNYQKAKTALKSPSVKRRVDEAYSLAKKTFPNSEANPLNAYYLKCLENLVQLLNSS
# UniProt Q9UJJ7: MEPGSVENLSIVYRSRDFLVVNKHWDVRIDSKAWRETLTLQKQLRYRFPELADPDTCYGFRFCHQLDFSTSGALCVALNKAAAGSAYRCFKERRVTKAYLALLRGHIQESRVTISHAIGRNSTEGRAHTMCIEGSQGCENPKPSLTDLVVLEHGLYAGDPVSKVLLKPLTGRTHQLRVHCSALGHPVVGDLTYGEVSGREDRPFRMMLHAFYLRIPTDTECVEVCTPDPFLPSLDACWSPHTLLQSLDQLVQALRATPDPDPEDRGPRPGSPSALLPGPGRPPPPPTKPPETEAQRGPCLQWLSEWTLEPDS
# UniProt Q8WXA3: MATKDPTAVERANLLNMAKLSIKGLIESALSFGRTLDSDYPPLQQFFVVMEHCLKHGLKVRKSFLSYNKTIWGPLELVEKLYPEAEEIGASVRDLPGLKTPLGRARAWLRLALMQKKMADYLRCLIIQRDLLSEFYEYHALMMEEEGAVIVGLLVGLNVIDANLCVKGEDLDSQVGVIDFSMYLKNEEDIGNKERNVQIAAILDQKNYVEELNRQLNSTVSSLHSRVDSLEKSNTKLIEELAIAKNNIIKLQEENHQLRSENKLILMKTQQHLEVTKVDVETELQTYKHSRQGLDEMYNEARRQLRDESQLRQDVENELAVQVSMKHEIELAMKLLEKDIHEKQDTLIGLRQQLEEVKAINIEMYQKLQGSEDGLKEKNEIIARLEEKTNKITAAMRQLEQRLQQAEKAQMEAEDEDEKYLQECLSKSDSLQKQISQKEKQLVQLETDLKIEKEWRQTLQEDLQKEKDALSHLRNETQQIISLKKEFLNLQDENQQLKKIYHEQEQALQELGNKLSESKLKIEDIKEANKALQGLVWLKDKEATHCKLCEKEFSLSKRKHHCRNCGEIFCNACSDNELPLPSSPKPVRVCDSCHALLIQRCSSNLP
# UniProt Q9BWD3: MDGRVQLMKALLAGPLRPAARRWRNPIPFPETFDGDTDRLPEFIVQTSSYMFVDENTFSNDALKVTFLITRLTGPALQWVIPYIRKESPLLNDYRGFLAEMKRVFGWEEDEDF
# This is one part of the list.
# Compound: NCC(=O)Nc1ccc(-n2nc(C(F)(F)F)cc2-c2ccc3c(ccc4ccccc43)c2)cc1
# Assay: log2 fold change, soluble protein after heating vs DMSO (PISA); higher = thermal stabilisation; K562 lysate, 10 uM; active = over 0.2 and 3.5 SD of the protein, either way, in both replicates (recomputed)
# Outline: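 Following dounce homogenisation of K562 pellets in PBS pH 7.4 with 1 mM MgCl2, crude extract at 1 mg/mL protein was incubated for 30 min with 10 μM compound. Aliquots were then heated for 3 min over 48°C-58°C and pooled, NP-40 was added to 0.5% at 4°C, and soluble protein was recovered as the supernatant at 21,000xg for 90 min. Channel-sum-equalised TMTpro 16plex LC-MS/MS quantified this protein. Each value, from duplicates, is a log-two fold change in thermal stability relative to solvent controls.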
row,Target,log2 fold change
1,RPS21 (UniProt P63220),inactive: -0.041
2,RUNX1 isoform 8 (UniProt Q01196),inactive: 0.109
3,RRAGC (UniProt Q9HB90),inactive: 0.027
4,RTN3 isoform 5 (UniProt O95197),inactive: -0.013
5,RPS27 (UniProt P42677),inactive: 0.032
6,RPS15 (UniProt P62841),inactive: 0.036
7,RSBN1 (UniProt Q5VWQ0),inactive: 0.028
8,RRN3 (UniProt Q9NYV6),inactive: 0.146
9,RPLP0P6 (UniProt Q8NHW5),inactive: 0.009
10,RPL7A (UniProt P62424),inactive: 0.018
11,S100A6 (UniProt P06703),inactive: 0.064
12,RSL1D1 (UniProt O76021),inactive: -0.011
13,RTTN (UniProt Q86VV8),inactive: -0.14
14,RPS11 (UniProt P62280),inactive: 0.012
15,RPL8 (UniProt P62917),inactive: -0.041
16,RPUSD1 (UniProt Q9UJJ7),inactive: 0.145
17,RPS9 (UniProt P46781),inactive: -0.03
18,"RPS7, A0A2R8Y623",inactive: 0.031
19,RPS3 (UniProt E9PJN9),inactive: 0.129
20,RUFY2 isoform 1 (UniProt Q8WXA3),inactive: -0.009
21,RPS25 (UniProt P62851),inactive: -0.003
22,RPL38 (UniProt P63173),inactive: 0.026
23,RTL8A (UniProt Q9BWD3),inactive: 0.008
24,RPP30 (UniProt Q5VU11),inactive: 0.122

# Single values from the results shown:
# Under log2 fold change, RUNX1 isoform 8 (UniProt Q01196) shows inactive: 0.109
# Under log2 fold change, RPS21 (UniProt P63220) shows inactive: -0.041
